# The inconclusive results got no clear call from the source; some entries with a clear call stand among them for comparison. For some of these results: A potency beside an inconclusive call is a rough fit, not a confirmed value. For some of these results: “Side channel” marks fits to a control or component signal instead of the main read-out. Active and inactive are the calls of the source. Unless noted, the call rests on the fitted dose curve.
# By UniProt entry, the sequences of proteins in these tests, tags left out. Where a name states a change or a piece, a line headed by the entry shows the natural chain unless it says otherwise.
# UniProt Q03181: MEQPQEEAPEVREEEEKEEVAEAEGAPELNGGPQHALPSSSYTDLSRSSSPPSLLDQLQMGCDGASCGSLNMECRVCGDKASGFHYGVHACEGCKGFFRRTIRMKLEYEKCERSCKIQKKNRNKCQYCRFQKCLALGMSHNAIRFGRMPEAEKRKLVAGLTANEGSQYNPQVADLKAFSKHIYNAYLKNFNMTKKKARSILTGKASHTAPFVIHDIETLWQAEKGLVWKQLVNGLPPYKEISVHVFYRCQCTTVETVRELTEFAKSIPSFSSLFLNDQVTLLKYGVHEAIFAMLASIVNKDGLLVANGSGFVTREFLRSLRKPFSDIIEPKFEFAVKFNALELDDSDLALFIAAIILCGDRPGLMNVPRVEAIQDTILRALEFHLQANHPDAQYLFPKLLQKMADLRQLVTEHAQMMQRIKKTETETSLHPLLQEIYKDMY
# UniProt P19793: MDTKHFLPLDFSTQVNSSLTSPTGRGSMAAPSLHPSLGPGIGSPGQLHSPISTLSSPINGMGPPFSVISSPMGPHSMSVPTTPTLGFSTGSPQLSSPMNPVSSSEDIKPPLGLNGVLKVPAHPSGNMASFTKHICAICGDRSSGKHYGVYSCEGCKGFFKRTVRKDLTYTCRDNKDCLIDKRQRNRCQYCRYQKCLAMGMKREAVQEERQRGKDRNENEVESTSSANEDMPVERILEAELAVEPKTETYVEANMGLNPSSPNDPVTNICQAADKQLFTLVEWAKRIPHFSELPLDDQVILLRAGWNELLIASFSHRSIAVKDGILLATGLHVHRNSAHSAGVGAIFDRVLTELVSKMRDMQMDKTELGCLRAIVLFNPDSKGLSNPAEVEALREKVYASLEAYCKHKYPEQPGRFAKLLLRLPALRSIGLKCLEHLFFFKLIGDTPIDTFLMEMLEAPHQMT
# UniProt P10828: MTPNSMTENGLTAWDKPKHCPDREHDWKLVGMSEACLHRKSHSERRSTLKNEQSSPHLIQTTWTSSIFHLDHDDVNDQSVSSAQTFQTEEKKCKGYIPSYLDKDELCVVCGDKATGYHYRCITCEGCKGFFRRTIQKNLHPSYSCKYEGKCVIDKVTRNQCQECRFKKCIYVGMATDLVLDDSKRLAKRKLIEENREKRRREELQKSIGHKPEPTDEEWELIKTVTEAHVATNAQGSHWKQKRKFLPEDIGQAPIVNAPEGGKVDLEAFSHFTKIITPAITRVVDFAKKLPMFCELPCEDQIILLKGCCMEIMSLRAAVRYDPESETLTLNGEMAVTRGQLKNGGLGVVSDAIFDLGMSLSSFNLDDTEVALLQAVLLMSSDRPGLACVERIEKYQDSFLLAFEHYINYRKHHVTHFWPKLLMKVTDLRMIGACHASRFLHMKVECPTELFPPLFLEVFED
# UniProt P01375, whole entry, looked up: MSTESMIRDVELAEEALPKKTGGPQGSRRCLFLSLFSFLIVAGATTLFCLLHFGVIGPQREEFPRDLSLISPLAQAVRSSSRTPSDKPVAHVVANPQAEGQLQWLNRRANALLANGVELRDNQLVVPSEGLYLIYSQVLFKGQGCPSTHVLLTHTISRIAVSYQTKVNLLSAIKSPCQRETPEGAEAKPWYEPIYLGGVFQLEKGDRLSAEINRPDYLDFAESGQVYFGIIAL
# Columns and labels:
# [1] = target: Peroxisome proliferator-activated receptor delta (Homo sapiens) (UniProt Q03181); experiment: qHTS assay for small molecule antagonists of peroxisome proliferator-activated receptor delta signaling (AID 588535; active means well fitted inhibition curve with a large enough effect in the signal ratio, with a control signal flat, not every such curve was filed as active; inconclusive means small, poorly fitted or top-dose-only effect, or effect the other way, or a change in a side signal; inactive means no such curve, though single readings can be large or run the other way; the % refers to the signal ratio); conditions: HEK293T PPARd-UAS-bla, beta-lactamase FRET ratio, 18 h
# Method in brief: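 Antagonist-mode beta-lactamase reporter (GeneBLAzer PPAR-delta-UAS-bla) in HEK293T cells, 2% charcoal/dextran FBS, 4000 cells/well. Compound titrations, 18 h at 37 C; CCF4 ratio read, IC50 and efficacy from Hill fits.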
# [2] = target: Peroxisome proliferator-activated receptor gamma (Homo sapiens) (UniProt P37231); experiment: qHTS assay for small molecule antagonists of peroxisome proliferator-activated receptor gamma signaling (AID 588537; active means well fitted inhibition curve with a large enough effect in the signal ratio, with a control signal flat, not every such curve was filed as active; inconclusive means small, poorly fitted or top-dose-only effect, or effect the other way, or a change in a side signal; the % refers to the signal ratio;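 further: reporter cells co-stimulated with 50 nM rosiglitazone agonist during compound treatment; % of control where 0% means no effect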); conditions: HEK293 PPARg-UAS-bla, beta-lactamase ratio, antagonist mode; activity, negative = inhibition: at 76.8 µM (top of the series) unless noted
# Method in brief: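 PPARγ-UAS-bla HEK293 cells (3000/well) in 1% charcoal/dextran-stripped FBS are treated with compound, then stimulated with 50 nM rosiglitazone for 16 h at 37 °C. Read-out is CCF4 β-lactamase fluorescence after 2 h at RT. IC50 comes from Hill fits normalised to rosiglitazone and DMSO.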
# [3] = target: Retinoic acid receptor RXR-alpha (Homo sapiens) (UniProt P19793); experiment: qHTS assay for small molecule agonists of retinoid X receptor alpha signaling (AID 588544); conditions: HEK293T RXRa-UAS-bla, beta-lactamase reporter, 18 h; activation: at 76.7 µM (top of the series); further: potency means the concentration at half of the fitted maximal effect;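 on activation: 0% = DMSO basal wells and 100% = reference agonist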
# [4] = target: Thyroid hormone receptor beta (Homo sapiens) (UniProt P10828); experiment: qHTS assay for small molecule antagonists of thyroid hormone receptor beta signaling (AID 588547; active means well fitted inhibition curve with a large enough effect in the signal ratio, with a control signal flat, not every such curve was filed as active; inconclusive means small, poorly fitted or top-dose-only effect, or effect the other way, or a change in a side signal; the % refers to the signal ratio; further: potency means the concentration at half of the fitted maximal effect;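 on activity change % (negative = inhibition): cells stimulated with 0.4 nM T3 agonist during compound exposure; on the % scale 0 is the no-effect control and ±100 the full control effect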); conditions: TR-UAS-bla HEK293, beta-lactamase ratio, antagonist mode, 18 h
# Method in brief: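 TR-UAS-bla GripTite HEK293 cells in 2% charcoal/dextran FBS medium; compounds 0.59 nM to 92 uM with T3 at 0.4nM final, 18 h at 37 C. Beta-lactamase read by CCF4 fluorescence (460/530 nm); Hill fits gave IC50 and efficacy.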
# [5] = qHTS assay for small molecule activators of the nuclear factor-kappa B (NF-kB) signaling pathway (AID 651749; active means well fitted activation curve with a large enough effect in the signal ratio; inconclusive means small, poorly fitted or top-dose-only effect, or a change in a side signal; the % refers to the signal ratio; further: % of control where 0% means no effect); conditions: NF-kB-bla ME-180 cells, beta-lactamase FRET ratio, 16 h; activation: hits give high values
# Method in brief: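 NF-kB-bla ME-180 cells carrying a beta-lactamase reporter under an NF-kB response element, 2,000 cells/well, exposed to compound for 16 hr at 37C; FRET-based beta-lactamase fluorescence read-out of pathway activation.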
# [6] = qHTS assay for small molecule agonists of the antioxidant response element (ARE) signaling pathway (AID 651741; active means well fitted activation curve with a large enough effect in the signal ratio; inconclusive means small, poorly fitted or top-dose-only effect, or effect the other way, or a change in a side signal; the % refers to the signal ratio; further: potency means the concentration at half of the fitted maximal effect; on activation: % of control where 0% means no effect); conditions: HepG2 ARE-bla reporter, beta-lactamase FRET ratio, 16 h; activation: at 96 µM (top of the series) unless noted
# Method in brief: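 CellSensor ARE-bla HepG2 cells (2,000/well) carrying ARE-driven beta-lactamase, exposed 16 h at 37 C. LiveBLAzer B/G FRET substrate added for 2 h at room temperature; fluorescence intensity read.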
# [7] = Cell Viability - LYMP2-006 (AID 978; active means well fitted curve in the direction sought with a large enough effect; inconclusive means small, poorly fitted or top-dose-only effect, or another doubt; inactive means no such curve, though single readings can be large; an effect the other way counts as inactive or inconclusive;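 further: cells exposed to compound for 24 hours; on the % scale 0 is the no-effect control and ±100 the full control effect; nearly all actives have a fitted effect of over 60% in size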)
# Method in brief: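 Cells are seeded at 2500 per well and rested 5 hr at 37 C. Compounds are added across a concentration series for 24 hr at 37 C, after which ATP is quantified by luciferase luminescence.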
# [8] = target: Thyroid hormone receptor beta (Homo sapiens) (UniProt P10828); experiment: qHTS assay for small molecule agonists of thyroid hormone receptor beta signaling (AID 588545); conditions: TR-UAS-bla GripTite HEK 293, beta-lactamase ratio, agonist mode, 18 h; activation: at 76.7 µM, percent of T3 response, DMSO as zero
# Method in brief: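 Agonist-mode beta-lactamase reporter assay, HEK 293 cells, 2% charcoal/dextran FBS; cells plated 4 hrs, compound 18 hrs at 37 C, CCF4 2 hrs RT. Normalized to 10 nM T3 (100%) and DMSO (0%); Hill fit gives EC50, efficacy.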
# [9] = qHTS assay to identify small molecules that stimulate interleukin-8 (IL-8) secretion (AID 651758; active means well fitted activation curve with a large enough effect in the signal ratio; inconclusive means small, poorly fitted or top-dose-only effect, or effect the other way, or a change in a side signal; the % refers to the signal ratio; further: 0% is about no effect); conditions: HTRF ratio (665/615); activation: at 92.2 µM (top of the series)
# Method in brief: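 THP-1 cells (2000/well) exposed to compound 16 h at 37 C; secreted IL-8 then detected by HTRF with cryptate- and XL665-labelled anti-IL-8 antibody pair after 1-3 h at room temperature.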
# [10] = target: Peroxisome proliferator-activated receptor delta (Homo sapiens) (UniProt Q03181); experiment: qHTS assay for small molecule agonists of peroxisome proliferator-activated receptor delta signaling (AID 588534); conditions: HEK293T PPARdelta-UAS-bla, beta-lactamase ratio, 18 h; activation: at 76.7 µM (top of the series) unless noted;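 further: 0% = DMSO basal wells and 100% = positive control agonist at 10 µM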
# Method in brief: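 Fluorescence from CCF4 substrate cleavage by beta-lactamase reporter, read 2 hrs at RT, measured agonist activity. Compounds were tested with 18 hrs exposure at 37 C. Concentration-response data fitted to Hill equation.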
# [11] = qHTS assay for small molecule agonists of the antioxidant response element (ARE) signaling pathway measured by Nrf2-dependant transcriptional activity (AID 720636; active means well fitted curve in the direction sought with a large enough effect in the repeat runs; inconclusive means weak or mixed curves; inactive means no such curve, though single readings can be large; an effect the other way counts as inactive or inconclusive; further: potency means the concentration at half of the fitted maximal effect)
# Method in brief: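 Attachment 6 hr at 37 C, then compound versus DMSO vehicle for 16 hr in ARE-luc HepG2 cells (1% dialyzed FBS); luminescence recorded 30 min after ONE-Glo addition at room temperature.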
# [12] = Cell Viability - LYMP2-021 (AID 974; active means well fitted curve in the direction sought with a large enough effect; inconclusive means small, poorly fitted or top-dose-only effect, or another doubt; inactive means no such curve, though single readings can be large; an effect the other way counts as inactive or inconclusive;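 further: compound exposure lasts 24 hours at 37 °C; on the % scale 0 is the no-effect control and ±100 the full control effect; nearly all actives have a fitted effect of over 55% in size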)
# Method in brief: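 Plate 2500 lymphoblastoid cells per well and incubate 5 hr at 37 C. Add compounds over a concentration range and incubate 24 hr at 37 C. Add CellTiter-Glo, wait 30 min at room temperature, read luminescence.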
# [13] = Cell Viability - LYMP2-012 (AID 982; active means well fitted curve in the direction sought with a large enough effect; inconclusive means small, poorly fitted or top-dose-only effect, or another doubt; inactive means no such curve, though single readings can be large; an effect the other way counts as inactive or inconclusive;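 further: cellular ATP by luciferase luminescence where a drop means cytotoxicity; cells exposed to compound for one day before reading; 0% = DMSO only and full loss = 92 µM tetraoctylammonium bromide; nearly all actives have a fitted effect of over 55% in size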); conditions: LYMP2-012 lymphoblastoid cell viability qHTS; activity change, negative = cytotoxicity: at 92.2 µM (top of the series)
# [14] = target: Peroxisome proliferator-activated receptor gamma (Homo sapiens) (UniProt P37231); experiment: qHTS assay for small molecule agonists of peroxisome proliferator-activated receptor gamma signaling (AID 588536; active means well fitted curve in the direction sought with a large enough effect in the signal ratio, with a control signal flat, not every such curve was filed as active; inconclusive means small, poorly fitted or top-dose-only effect, or effect the other way, or a change in a side signal; inactive means no such curve, though single readings can be large or run the other way; the % refers to the signal ratio;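 further: 0% = DMSO basal wells and 100% = rosiglitazone at 2 µM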); conditions: HEK293 PPARg-UAS-bla, beta-lactamase ratio, 16 h; activation: at 76.7 µM (top of the series), percent of rosiglitazone response, DMSO as zero
# Method in brief: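 GeneBLAzer PPAR-gamma-UAS-bla HEK293 cells in 1% charcoal/dextran-treated FBS medium were treated 16 h at 37 C with compounds. Beta-lactamase activity was read by CCF4 ratio (460/530 nm). Response was normalized to 2 uM rosiglitazone (100%) and DMSO, then Hill-fitted for EC50 and efficacy.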
# [15] = MultiTox-Fluor Cytotoxicity Assay - LYMP1-002 - Dead Cells (AID 960; active means well fitted curve in the direction sought with a large enough effect; inconclusive means small, poorly fitted or top-dose-only effect, or another doubt; inactive means no such curve, though single readings can be large; an effect the other way counts as inactive or inconclusive; further: potency means the concentration at half of the fitted maximal effect; nearly all actives have a fitted effect of over 60% in size); conditions: LYMP1-002 lymphoblastoid cells, dead-cell protease fluorescence; cytotoxicity (dead cells): at 46.1 µM (top of the series)
# Method in brief: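 LYMP1-002 cells 2500/well; 5 hr 37 C pre-incubation; compound 16 hr 37 C; MultiTox-Fluor reagent 60 min RT; dead-cell fluor Ex/Em 485/520. Norm. to DMSO (0%) vs 15 uM tetraoctylammonium bromide (100%); Hill AC50.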
# [16] = Cellular Toxicity (caspase-3) Jurkat (AID 655; active means well fitted curve in the direction sought with a large enough effect; inconclusive means small, poorly fitted or top-dose-only effect, or another doubt; inactive means no such curve, though single readings can be large; an effect the other way counts as inactive or inconclusive;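 further: cells exposed to compound for 16 h at 37 °C before reading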); conditions: Jurkat caspase-3 activation, luminescence, DMSO = 0%, tamoxifen = 100%; at 92.2 µM (top of the series)
# Method in brief: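 5000 Jurkat cells/well; compound 16 hr, 37 °C; Caspase-Glo 3/7 added, 20 min RT; luminescence read. Norm: DMSO = 0%, tamoxifen 100 uM = 100%. AC50, Hill model.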
# [17] = target: Tumor necrosis factor (Homo sapiens) (UniProt P01375); experiment: qHTS assay to identify small molecules that stimulate Tumor Necrosis Factor-alpha (TNF-alpha) secretion (AID 651757; active means well fitted curve in the direction sought with a large enough effect in the signal ratio; inconclusive means small, poorly fitted or top-dose-only effect, or a change in a side signal; inactive means no such curve, though single readings can be large or run the other way; the % refers to the signal ratio; further: 0% is about no effect); conditions: Human cells, HTRF 665/615 ratio; activation (TNF-alpha secretion): at 92.2 µM (top of the series)
# Method in brief: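 Read-out is HTRF, a TR-FRET sandwich of cryptate- and XL665-labeled anti-TNF-alpha antibodies detecting cytokine secreted by THP-1 cells. Cells had been incubated with test compounds at 37 C for 17 hrs beforehand.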
# [18] = activity change, negative = inhibition: at 76.7 µM (top of the series) unless noted
smiles,measurement,setting,value
CC1(C)CC(N)CC(C)(CN)C1 (centres undefined),Potency,[1]; [18],inactive
same,"activity, negative = inhibition",[2],inconclusive: 4.83%
same,Potency,[3],inactive
same,Potency,[4],"inconclusive: 89.1 µM [side channel, falling, partial curve, poor fit]"
same,activation,[5],inactive: -0.653%
O=C(c1ccc(Cl)cc1)c1ccc(Cl)cc1,Potency,[1]; [18],inactive
same,Potency,[2],inactive
same,Potency,[3],inactive
same,Potency,[4],"inconclusive: 0.0028 µM [side channel, falling, full curve, poor fit]"
same,activation,[6],inconclusive: -1.03%
CCCCCCCOC(=O)c1ccccc1C(=O)OCCCCCCC,Potency,[1]; [18],inactive
same,"activity, negative = inhibition",[2],inconclusive: 9.25%
same,activity change % (negative = inhibition),[4],inconclusive: -8.94%
same,Potency,[6],"inconclusive: 77 µM [activator, single point]"
O=C(O)CC(C(=O)O)C(CC(=O)O)C(=O)O (centres undefined),Potency,[7],inactive
same,"activity change, negative = inhibition",[1]; [18],inconclusive: 2.1%
same,"activity change, negative = inhibition",[1]; at 76.7 µM (top of the series),inactive: -8.52%
same,"activity, negative = inhibition",[2],inconclusive: 3.49%
same,Potency,[3],inactive
same,activation,[8],inconclusive: -11.6%
same,Potency,[6],"inconclusive: 27.3 µM [activator, partial curve, poor fit]"
same,Potency,[9],inactive
COC(=O)CCSCCC(=O)OC,Potency,[10],inactive
same,Potency,[3],"inconclusive: 35.5 µM [inhibitor, partial curve]"
same,Potency,[4],"inconclusive: 7.94 µM [side channel, falling, partial curve, poor fit]"
same,activation,[6],inconclusive: 14%
CCCCCCCCCCCCCO,Potency,[1]; [18],inactive
same,Potency,[4],"inconclusive: 0.0794 µM [side channel, falling, full curve, poor fit]"
same,Potency,[6],active: 48.6 µM
same,Potency,[11],"inconclusive: 43.3 µM [activator, partial curve, poor fit]"
NC=O,Potency,[12],inactive
same,Potency,[13],inactive
same,"activity change, negative = inhibition",[1]; [18],inconclusive: 14.4%
same,Potency,[14],inactive
same,"activity, negative = inhibition",[2],inconclusive: 6%
same,Potency,[6],inactive
same,activation,[9],inconclusive: 10.1%
CCCCCCCCCCCCCCC1CO1 (centres undefined),Potency,[15],"inconclusive: 6.31 µM [cytotoxic, partial curve, poor fit]"
same,"activity change, negative = inhibition",[1]; [18],inconclusive: -23.8%
same,activity change % (negative = inhibition),[4],inconclusive: -7.18%
same,Potency,[6],"inconclusive: 75 µM [activator, single point]"
same,activation,[9],inconclusive: 19.3%
CSc1ccc(C=O)cc1,caspase-3 activation,[16],inactive: 1.05%
same,Potency,[13],inactive
same,"activity change, negative = inhibition",[1]; [18],inconclusive: -19.3%
same,"activity, negative = inhibition",[2],inconclusive: 5.94%
same,activation,[6],inconclusive: 8.9%
same,activation (TNF-alpha secretion),[17],inconclusive: 2.23%
same,activation,[9],inconclusive: 14.1%

# Reformatted with bars between the fields: entries from further up.
smiles | measurement | setting | value
CCCCCCCOC(=O)c1ccccc1C(=O)OCCCCCCC | activity change % (negative = inhibition) | [4] | inconclusive: -8.94%
same | Potency | [6] | inconclusive: 77 µM [activator, single point]
O=C(O)CC(C(=O)O)C(CC(=O)O)C(=O)O (centres undefined) | Potency | [7] | inactive

# From PubChem BioAssay (NCATS)
